The supplement of paper PMC10849652
Some of the results follow.

Protein sequences, listed by entry. Tags and fused reporters are not part of them. Lines headed by an entry give the natural chain unless they say otherwise; changes in a name come on top.
UniProt Q09472, whole entry, looked up: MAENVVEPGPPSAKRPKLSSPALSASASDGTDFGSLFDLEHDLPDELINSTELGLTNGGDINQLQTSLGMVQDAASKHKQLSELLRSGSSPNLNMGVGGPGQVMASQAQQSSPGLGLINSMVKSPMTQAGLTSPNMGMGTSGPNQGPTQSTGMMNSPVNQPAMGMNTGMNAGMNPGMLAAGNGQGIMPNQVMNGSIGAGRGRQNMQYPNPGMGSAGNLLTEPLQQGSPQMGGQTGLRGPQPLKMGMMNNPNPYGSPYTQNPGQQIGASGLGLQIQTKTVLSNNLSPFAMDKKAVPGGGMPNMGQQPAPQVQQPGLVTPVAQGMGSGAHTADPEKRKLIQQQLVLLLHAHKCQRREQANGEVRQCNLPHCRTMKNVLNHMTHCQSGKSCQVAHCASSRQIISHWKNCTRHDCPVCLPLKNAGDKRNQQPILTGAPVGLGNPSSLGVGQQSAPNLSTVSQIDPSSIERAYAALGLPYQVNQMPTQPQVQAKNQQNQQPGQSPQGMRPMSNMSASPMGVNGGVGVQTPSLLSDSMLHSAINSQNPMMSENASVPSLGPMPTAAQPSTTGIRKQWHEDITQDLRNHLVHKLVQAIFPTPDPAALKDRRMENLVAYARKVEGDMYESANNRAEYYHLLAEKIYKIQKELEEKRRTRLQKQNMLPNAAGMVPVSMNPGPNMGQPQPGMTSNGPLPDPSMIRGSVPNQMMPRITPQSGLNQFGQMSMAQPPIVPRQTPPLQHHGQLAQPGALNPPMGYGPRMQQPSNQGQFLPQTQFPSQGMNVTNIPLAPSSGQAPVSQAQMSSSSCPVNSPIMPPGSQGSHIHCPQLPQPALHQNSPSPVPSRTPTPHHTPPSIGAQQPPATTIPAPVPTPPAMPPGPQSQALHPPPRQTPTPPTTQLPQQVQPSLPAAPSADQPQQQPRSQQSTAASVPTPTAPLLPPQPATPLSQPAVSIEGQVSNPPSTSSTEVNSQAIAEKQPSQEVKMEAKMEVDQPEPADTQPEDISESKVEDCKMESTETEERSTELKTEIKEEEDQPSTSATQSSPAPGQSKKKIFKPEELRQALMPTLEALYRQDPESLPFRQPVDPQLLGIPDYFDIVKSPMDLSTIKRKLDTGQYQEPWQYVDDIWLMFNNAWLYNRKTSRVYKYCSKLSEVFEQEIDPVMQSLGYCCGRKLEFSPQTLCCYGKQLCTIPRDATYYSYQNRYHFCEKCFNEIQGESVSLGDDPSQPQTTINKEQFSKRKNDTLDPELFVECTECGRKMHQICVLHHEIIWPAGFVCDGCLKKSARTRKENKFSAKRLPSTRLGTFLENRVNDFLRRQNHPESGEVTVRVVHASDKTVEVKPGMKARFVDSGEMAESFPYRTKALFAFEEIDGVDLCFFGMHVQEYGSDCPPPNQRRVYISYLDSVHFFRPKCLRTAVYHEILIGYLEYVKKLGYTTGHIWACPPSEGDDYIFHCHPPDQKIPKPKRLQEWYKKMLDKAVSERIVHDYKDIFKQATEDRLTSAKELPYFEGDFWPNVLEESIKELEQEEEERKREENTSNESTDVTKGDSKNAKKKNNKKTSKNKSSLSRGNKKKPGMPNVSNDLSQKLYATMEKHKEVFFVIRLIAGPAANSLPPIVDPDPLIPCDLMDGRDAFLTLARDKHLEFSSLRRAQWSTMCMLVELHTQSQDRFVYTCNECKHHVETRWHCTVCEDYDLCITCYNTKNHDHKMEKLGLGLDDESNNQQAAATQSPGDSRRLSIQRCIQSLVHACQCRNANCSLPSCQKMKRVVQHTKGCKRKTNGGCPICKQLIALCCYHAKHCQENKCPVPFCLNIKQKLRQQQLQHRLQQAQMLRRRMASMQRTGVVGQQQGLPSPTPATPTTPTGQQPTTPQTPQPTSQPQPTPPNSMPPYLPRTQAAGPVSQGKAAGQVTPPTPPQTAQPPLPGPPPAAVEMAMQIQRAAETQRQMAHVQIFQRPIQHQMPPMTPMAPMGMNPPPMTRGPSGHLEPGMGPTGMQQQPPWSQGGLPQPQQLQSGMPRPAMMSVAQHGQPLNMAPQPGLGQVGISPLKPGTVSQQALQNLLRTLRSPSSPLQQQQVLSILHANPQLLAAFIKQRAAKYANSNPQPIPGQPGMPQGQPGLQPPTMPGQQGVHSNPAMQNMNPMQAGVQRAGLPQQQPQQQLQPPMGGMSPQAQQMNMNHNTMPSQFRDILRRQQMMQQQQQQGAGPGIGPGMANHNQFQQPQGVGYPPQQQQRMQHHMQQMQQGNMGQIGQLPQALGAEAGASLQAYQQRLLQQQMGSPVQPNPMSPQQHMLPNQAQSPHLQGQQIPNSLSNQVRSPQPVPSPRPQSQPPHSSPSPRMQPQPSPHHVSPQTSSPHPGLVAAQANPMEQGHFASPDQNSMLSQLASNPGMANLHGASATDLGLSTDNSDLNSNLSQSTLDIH
UniProt O00303, whole entry, looked up: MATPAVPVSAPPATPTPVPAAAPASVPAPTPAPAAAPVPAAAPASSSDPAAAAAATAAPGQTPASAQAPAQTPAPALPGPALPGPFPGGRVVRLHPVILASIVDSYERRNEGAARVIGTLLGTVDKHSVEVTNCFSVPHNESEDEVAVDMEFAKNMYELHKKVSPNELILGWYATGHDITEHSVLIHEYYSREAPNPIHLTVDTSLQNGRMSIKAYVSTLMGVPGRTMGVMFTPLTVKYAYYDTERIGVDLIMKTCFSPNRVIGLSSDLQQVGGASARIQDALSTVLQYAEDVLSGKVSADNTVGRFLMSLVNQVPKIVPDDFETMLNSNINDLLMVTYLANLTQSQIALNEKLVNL
UniProt Q9P0I2: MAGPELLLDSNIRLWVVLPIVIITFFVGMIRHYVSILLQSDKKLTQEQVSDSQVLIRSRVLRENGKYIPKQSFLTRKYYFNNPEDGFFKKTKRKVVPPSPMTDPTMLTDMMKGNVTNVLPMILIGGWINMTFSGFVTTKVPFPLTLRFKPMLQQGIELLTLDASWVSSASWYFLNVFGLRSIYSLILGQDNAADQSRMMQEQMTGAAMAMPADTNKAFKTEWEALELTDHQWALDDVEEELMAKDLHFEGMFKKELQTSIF
UniProt P55884, whole entry, looked up: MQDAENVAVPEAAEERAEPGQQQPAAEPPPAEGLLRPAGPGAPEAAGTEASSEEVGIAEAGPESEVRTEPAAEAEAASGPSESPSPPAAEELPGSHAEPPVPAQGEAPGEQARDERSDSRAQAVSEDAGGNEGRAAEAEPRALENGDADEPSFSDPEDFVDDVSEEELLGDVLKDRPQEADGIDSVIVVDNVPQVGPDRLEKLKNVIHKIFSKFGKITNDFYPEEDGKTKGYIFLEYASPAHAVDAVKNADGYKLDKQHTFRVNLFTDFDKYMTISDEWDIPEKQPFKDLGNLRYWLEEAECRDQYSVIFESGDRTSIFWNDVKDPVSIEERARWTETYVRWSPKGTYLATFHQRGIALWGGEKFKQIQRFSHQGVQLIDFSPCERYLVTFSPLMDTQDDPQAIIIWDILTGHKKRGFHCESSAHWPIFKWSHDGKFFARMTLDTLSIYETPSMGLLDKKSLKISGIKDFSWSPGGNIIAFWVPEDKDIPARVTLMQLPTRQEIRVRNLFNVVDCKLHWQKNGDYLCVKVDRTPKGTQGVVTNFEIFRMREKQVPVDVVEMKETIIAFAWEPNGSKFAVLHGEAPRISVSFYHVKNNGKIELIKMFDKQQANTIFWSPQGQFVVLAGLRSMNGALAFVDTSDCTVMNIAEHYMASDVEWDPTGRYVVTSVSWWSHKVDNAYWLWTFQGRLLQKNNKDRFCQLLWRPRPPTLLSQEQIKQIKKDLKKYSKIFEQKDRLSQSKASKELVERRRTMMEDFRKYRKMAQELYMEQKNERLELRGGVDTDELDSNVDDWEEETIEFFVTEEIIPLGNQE
UniProt Q9NPA8: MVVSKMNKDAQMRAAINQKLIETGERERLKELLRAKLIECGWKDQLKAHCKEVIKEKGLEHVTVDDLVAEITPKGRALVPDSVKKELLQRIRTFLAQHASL
UniProt Q9NPA0: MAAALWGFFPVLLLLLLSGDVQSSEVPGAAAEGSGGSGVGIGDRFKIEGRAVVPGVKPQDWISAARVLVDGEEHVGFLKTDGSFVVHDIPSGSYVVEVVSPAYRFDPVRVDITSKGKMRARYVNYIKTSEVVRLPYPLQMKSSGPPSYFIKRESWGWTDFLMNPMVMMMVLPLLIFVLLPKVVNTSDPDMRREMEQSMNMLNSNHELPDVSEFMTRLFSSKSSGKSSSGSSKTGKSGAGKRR
UniProt Q9BV81: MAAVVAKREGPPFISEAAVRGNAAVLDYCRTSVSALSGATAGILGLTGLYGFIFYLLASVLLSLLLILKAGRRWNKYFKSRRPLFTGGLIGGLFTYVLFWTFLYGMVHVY
UniProt P41091, whole entry, looked up: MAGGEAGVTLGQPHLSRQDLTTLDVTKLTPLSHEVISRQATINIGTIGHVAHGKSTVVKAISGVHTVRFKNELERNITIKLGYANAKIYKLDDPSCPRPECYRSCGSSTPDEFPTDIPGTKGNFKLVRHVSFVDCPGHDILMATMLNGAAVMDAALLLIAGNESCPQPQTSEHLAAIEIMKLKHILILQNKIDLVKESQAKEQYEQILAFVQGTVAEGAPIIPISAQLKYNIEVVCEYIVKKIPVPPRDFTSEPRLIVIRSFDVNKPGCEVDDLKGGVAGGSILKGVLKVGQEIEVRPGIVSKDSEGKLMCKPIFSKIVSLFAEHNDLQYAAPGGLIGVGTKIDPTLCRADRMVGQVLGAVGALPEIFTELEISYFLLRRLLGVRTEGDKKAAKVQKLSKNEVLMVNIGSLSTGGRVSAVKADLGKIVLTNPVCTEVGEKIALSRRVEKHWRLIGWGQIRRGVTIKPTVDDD
UniProt P84090, whole entry, looked up: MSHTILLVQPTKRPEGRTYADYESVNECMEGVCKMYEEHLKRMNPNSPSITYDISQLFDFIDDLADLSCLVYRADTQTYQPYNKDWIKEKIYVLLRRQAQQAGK
UniProt P34913, whole entry, looked up: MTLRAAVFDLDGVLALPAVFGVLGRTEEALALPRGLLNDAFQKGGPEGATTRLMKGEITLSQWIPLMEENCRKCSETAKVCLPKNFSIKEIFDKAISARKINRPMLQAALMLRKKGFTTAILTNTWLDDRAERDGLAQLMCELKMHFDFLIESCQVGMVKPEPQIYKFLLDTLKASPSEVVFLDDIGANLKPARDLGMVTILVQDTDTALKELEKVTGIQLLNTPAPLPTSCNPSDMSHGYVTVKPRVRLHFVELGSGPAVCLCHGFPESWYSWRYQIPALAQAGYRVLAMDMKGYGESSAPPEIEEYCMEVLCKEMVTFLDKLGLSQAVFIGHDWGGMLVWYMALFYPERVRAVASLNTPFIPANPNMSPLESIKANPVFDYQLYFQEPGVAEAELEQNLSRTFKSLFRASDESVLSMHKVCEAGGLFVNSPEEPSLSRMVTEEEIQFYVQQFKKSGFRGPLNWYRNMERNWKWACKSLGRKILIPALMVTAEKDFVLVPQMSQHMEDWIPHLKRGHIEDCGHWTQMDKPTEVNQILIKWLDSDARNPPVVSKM
UniProt Q92889: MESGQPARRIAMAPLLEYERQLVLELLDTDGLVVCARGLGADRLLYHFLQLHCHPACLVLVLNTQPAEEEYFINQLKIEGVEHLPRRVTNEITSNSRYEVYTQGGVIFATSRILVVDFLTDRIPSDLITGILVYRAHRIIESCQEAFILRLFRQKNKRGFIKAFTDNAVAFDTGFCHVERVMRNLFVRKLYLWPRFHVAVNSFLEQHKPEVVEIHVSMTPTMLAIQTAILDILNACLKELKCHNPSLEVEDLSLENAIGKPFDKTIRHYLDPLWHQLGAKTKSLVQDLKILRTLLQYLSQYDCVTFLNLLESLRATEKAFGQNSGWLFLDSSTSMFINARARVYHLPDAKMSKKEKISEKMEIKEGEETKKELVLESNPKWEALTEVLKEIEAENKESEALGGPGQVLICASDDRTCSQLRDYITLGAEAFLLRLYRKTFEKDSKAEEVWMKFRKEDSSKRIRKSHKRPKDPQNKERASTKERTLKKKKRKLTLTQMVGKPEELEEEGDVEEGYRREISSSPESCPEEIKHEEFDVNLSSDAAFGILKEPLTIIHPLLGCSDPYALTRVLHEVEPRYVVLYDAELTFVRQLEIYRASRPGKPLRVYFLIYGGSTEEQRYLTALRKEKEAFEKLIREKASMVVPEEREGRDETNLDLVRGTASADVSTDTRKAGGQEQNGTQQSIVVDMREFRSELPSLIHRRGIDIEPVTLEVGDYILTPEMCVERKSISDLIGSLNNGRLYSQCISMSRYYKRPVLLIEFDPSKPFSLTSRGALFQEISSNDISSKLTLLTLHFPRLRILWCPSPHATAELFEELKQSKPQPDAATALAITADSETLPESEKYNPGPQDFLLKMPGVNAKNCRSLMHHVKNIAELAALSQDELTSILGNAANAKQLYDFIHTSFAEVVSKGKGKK
UniProt O43768: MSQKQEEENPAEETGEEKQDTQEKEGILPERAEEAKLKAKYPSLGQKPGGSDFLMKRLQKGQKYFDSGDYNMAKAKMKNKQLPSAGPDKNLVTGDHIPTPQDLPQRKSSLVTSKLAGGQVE

compound: CN1CCN(CCOc2cc(OC3CCOCC3)c3c(Nc4c(Cl)ccc5c4OCO5)ncnc3c2)CC1 [saracatinib]; test: log2 fold change, soluble protein after heating vs DMSO (PISA); higher = thermal stabilisation; K562 lysate, 10 uM; active = over 0.2 and 3.5 SD of the protein, either way, in both replicates (recomputed)
Outline: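 Pellets of K562 cells were dounce-homogenised in PBS pH 7.4 with 1 mM MgCl2, and the crude extract was held at 1 mg/mL protein for a 30 min treatment with 10 μM compound. Aliquots were heated for 3 min over 48°C-58°C and pooled before NP-40 was added to 0.5% at 4°C. The supernatant from 21,000xg for 90 min was quantified by TMTpro 16plex LC-MS/MS with channel sums equalised. Values are reported from duplicates as log-two fold change in thermal stability relative to solvent controls.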

| Target | log2 fold change |
| --- | --- |
| EIF3G (UniProt K7ER90) | inactive: 0.045 |
| EP300 (UniProt Q09472) | inactive: 0.027 |
| ERGIC2 (UniProt Q96RQ1) | inactive: -0.032 |
| ERAL1 (UniProt O75616) | inactive: -0.035 |
| EIF3F (UniProt O00303) | inactive: 0 |
| EMC3 (UniProt Q9P0I2) | inactive: 0.006 |
| ELMO1 (UniProt Q92556) | inactive: 0.071 |
| ERC1 (UniProt X6RLX0) | inactive: 0.026 |
| EIF3B isoform 2 (UniProt P55884) | inactive: -0.016 |
| ERI1 (UniProt Q8IV48) | inactive: -0.006 |
| ENY2 (UniProt Q9NPA8) | inactive: -0.003 |
| EMC7 (UniProt Q9NPA0) | inactive: 0.005 |
| EMC6 (UniProt Q9BV81) | inactive: -0.029 |
| EIF2D (UniProt P41214) | inactive: -0.002 |
| EIF2S3 (UniProt P41091) | inactive: -0.023 |
| ELF2 (UniProt Q15723) | inactive: -0.023 |
| ERH (UniProt P84090) | inactive: -0.03 |
| EPHX2 (UniProt P34913) | inactive: -0.018 |
| EPS15L1 isoform 2 (UniProt Q9UBC2) | inactive: -0.016 |
| ERCC4 (UniProt Q92889) | inactive: 0.016 |
| ERCC3 (UniProt P19447) | inactive: -0.029 |
| EPPK1 (UniProt P58107) | inactive: 0.05 |
| EIF6 (UniProt P56537) | inactive: 0.021 |
| ENSA isoform 3 (UniProt O43768) | inactive: -0.021 |

Not a retest: entries from further up.

| Target | log2 fold change |
| --- | --- |
| EIF3G (UniProt K7ER90) | inactive: 0.045 |
| EP300 (UniProt Q09472) | inactive: 0.027 |
